Among the data in article PMC6445466 are binding values, retold here.

The chains behind the UniProt entries cited, without tags or fusion partners. Where a name states a change or a piece, a line headed by the entry shows the natural chain unless it says otherwise.
UniProt O50835: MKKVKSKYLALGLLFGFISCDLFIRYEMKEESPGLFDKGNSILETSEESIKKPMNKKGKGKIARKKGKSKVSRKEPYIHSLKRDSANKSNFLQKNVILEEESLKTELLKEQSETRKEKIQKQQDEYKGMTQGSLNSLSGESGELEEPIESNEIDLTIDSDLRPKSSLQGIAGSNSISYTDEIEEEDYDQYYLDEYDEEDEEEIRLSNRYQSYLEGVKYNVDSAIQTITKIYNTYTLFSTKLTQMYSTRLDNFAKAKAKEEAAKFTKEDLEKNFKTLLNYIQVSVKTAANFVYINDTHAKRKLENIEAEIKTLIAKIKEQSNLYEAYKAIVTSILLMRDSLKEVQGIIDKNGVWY

These are yes or no findings as the source states them, for the method shown. Binding can be weak; no strength is given.

Assay [1] has as its target BBK32, full-length lipoprotein expressed in B. burgdorferi strain B314 (B314/pCD100) (Borrelia burgdorferi) (UniProt O50835). The assay is described as follows: far-Western, overlay or dot blot; whole cell lysates of B. burgdorferi B314 strains resolved by SDS-PAGE on PVDF, probed with biotinylated C1 or C1r at 1 ug/ml in PBS, 0.2% Tween-20 overnight at 4 °C, IRDye streptavidin; densitometry normalised to FlaB and to BBK32; only the binder purified.

Assay [2] has as its target BGD19-C (residues 206-354, B. garinii strain IP90) (Borrelia garinii strain IP90). The assay is described as follows: SPR; Biacore T200, 25 °C, BBK32-C, BGD19-C or BAD16-C amine-coupled; C1r as analyte, single-cycle kinetics, five-fold dilution series 1.6 to 1000 nM, HBS-T with 5 mM CaCl2; 1:1 Langmuir fit; both purified. (In general: SPR reads the build-up and loss of mass on a sensor chip optically.)

Assay [3] addresses BAD16-C (residues 204-352, B. afzelii strain PGau) (Borrelia afzelii strain PGau). The assay is described as above.

B1: biotinylated human C1r (enzyme, UniProt P00736 18-705)
chain: SIPIPQKLFGEVTSPLFPKPYPNNFETTTVITVPTGYRVKLVFQQFDLEPSEGCFYDYVKISADKKSLGRFCGQLGSPLGNPPGKKEFMSQGNKMLLTFHTDFSNEENGTIMFYKGFLAYYQAVDLDECASRSKSGEEDPQPQCQHLCHNYVGGYFCSCRPGYELQEDTHSCQAECSSELYTEASGYISSLEYPRSYPPDLRCNYSIRVERGLTLHLKFLEPFDIDDHQQVHCPYDQLQIYANGKNIGEFCGKQRPPDLDTSSNAVDLLFFTDESGDSRGWKLRYTTEIIKCPQPKTLDEFTIIQNLQPQYQFRDYFIATCKQGYQLIEGNQVLHSFTAVCQDDGTWHRAMPRCKIKDCGQPRNLPNGDFRYTTTMGVNTYKARIQYYCHEPYYKMQTRAGSRESEQGVYTCTAQGIWKNEQKGEKIPRCLPVCGKPVNPVEQRQRIIGGQKAKMGNFPWQVFTNIHGRGGGALLGDRWILTAAHTLYPKEHEAQSNASLDVFLGHTNVEELMKLGNHPIRRVSVHPDYRQDESYNFEGDIALLELENSVTLGPNLLPICLPDNDTFYDLGLMGYVSGFGVMEEKIAHDLRFVRLPVANPQACENWLRGKNRMDVFSQNMFCAGHPSLKQDACQGDSGGVFAVRDPNTDRWVATGIVSWGIGCSRGYGFYTKVLNYVDWIKKEMEEED
modifications: biotin (sites not told)
For B1, in assay [1], the binding entry was “binds”.

B2: human C1r, full-length enzyme (enzyme, UniProt P00736 18-705)
chain: B1 chain
Regarding B2, the binding result in assay [2] and in assay [3] was “binds” in each case.
